Results: PMC10739811
No constants are given. Whether binding was seen depends on the method and setting. In cells and extracts the contact can be indirect. Some binding calls cover weakened binding; strength is not graded here.

Amino acid sequences for entries named in this document (tags omitted). Residues count along the entry.
UniProt O14867: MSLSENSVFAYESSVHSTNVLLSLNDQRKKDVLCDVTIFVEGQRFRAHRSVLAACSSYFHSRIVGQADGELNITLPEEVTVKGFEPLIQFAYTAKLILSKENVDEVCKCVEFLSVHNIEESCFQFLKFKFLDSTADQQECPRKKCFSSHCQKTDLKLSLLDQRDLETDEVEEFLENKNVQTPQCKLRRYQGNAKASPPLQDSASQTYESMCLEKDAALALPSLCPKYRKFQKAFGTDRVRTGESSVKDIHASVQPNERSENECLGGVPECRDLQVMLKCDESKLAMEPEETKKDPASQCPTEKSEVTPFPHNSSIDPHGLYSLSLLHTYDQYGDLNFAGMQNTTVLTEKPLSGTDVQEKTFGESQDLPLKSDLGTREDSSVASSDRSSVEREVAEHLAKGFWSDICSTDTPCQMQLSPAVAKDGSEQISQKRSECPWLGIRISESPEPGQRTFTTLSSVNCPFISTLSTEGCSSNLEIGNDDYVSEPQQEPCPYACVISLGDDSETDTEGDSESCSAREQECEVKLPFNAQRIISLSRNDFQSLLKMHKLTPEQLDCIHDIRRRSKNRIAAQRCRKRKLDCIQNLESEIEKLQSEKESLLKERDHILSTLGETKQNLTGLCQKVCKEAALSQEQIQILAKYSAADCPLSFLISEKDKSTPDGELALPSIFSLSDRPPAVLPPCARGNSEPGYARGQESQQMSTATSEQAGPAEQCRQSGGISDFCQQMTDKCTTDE
UniProt P97302: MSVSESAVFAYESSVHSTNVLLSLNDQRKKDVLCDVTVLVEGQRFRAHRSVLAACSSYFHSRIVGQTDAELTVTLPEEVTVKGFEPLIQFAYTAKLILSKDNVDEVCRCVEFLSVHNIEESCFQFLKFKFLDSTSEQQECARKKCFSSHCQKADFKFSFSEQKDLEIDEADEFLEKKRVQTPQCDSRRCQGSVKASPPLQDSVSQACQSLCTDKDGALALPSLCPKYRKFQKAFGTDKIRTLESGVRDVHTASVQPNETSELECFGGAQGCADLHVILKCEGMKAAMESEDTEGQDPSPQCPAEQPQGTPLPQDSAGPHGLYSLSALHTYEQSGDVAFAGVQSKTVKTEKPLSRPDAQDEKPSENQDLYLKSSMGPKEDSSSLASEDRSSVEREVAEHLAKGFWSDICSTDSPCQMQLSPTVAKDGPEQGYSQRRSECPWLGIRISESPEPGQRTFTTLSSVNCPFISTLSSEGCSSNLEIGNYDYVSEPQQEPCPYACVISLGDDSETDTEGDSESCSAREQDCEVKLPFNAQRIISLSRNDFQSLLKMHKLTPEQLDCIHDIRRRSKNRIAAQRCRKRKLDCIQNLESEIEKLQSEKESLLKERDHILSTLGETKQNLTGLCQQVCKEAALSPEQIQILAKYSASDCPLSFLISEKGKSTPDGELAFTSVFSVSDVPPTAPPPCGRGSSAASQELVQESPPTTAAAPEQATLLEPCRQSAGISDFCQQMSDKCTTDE
UniProt P06213, residues 763-1382: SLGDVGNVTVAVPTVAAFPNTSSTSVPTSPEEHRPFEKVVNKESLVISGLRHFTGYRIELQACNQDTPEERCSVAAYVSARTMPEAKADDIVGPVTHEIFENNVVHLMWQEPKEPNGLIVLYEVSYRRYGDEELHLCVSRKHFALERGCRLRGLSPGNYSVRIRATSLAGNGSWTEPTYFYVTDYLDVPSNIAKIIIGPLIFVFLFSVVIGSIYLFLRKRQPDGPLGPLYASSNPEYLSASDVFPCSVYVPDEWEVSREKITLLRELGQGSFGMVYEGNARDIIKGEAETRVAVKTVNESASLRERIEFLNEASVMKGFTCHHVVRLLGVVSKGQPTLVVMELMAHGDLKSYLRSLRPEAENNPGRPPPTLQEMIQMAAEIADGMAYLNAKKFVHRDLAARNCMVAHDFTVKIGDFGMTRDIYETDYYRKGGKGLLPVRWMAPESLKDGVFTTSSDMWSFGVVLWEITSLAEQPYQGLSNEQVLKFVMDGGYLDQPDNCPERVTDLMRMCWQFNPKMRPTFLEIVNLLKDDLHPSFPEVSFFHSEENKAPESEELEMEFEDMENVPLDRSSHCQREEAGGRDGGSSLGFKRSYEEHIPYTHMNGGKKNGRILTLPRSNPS
UniProt P15208, residues 753-1372: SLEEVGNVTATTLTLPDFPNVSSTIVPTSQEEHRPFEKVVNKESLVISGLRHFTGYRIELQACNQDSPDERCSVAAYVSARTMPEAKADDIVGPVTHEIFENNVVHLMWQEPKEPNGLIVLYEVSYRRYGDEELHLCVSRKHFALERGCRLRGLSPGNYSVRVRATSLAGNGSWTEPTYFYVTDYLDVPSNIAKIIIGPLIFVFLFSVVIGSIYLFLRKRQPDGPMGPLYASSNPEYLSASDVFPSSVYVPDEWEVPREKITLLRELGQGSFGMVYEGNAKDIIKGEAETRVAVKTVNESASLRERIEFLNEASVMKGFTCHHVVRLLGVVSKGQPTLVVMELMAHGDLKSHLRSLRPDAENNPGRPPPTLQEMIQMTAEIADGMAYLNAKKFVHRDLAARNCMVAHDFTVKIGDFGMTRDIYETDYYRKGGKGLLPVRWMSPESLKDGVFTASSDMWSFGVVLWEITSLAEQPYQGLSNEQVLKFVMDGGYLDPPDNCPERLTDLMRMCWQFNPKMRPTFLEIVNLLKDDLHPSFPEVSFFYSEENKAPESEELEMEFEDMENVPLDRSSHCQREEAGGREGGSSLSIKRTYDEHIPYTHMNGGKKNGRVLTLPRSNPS
UniProt O08586: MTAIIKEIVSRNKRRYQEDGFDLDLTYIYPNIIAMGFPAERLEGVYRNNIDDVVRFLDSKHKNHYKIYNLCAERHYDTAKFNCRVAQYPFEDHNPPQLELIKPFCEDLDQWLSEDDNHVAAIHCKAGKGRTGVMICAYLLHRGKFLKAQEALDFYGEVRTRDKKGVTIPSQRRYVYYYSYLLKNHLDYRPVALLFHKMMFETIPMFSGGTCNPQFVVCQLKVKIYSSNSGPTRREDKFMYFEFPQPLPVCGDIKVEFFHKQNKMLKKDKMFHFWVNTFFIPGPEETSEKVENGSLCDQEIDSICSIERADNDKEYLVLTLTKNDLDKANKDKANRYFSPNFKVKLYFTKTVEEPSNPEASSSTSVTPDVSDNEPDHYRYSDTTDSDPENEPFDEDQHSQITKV

What was measured:
[1] = target: Flag-tagged full-length human BACH1 (human) (UniProt O14867); assay: co-IP; HEK293T cells co-transfected with PTP1B-HA or IR-β-GFP and Flag-tagged BACH1 (full or lacking the BTB domain); precipitated with anti-Flag, blot with anti-HA or anti-GFP
[2] = target: GST-tagged BACH1 protein (GST-BACH1) (not stated (human or mouse cDNA cloned)) (UniProt O14867); assay: pull-down; GST-BACH1 on glutathione-Sepharose 4B incubated for 2 h at 4 °C with IR-β-GFP or PTP1B-HA from transfected HEK293T cells (lysate by the legend and results; 'purified' by the methods), three washes, blot; only the target purified
[3] = target: BTB and CNC homology 1 (BACH1), endogenous mouse (mouse (endogenous in primary hepatocytes)) (UniProt P97302); assay: co-IP; lysate of mouse primary hepatocytes precipitated with anti-BACH1 antibody or control mouse IgG; blots for IR-β, PTP1B, PTEN, PP2A and BACH1; endogenous proteins
[4] = target: T1, protein tyrosine phosphatase 1B (PTP1B), endogenous mouse (mouse (endogenous in primary hepatocytes and liver)) (UniProt P35821); assay: co-IP; liver lysates of HFD-fed Bach1^LKO and Bach1^fl/fl mice, with or without insulin injected i.p. after fasting; precipitated with anti-PTP1B, blot for IR-β; endogenous proteins
T1 sequence: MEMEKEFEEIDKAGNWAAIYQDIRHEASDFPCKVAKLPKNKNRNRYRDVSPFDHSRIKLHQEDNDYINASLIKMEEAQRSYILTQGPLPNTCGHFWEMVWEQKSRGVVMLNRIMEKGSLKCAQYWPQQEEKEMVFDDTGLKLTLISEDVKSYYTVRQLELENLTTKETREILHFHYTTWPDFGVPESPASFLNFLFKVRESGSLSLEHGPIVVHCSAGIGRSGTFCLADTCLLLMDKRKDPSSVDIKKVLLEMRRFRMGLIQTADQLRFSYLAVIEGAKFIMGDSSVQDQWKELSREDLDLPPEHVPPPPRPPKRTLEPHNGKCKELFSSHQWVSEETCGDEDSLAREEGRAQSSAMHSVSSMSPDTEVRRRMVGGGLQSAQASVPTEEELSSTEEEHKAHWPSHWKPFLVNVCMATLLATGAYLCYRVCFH

binding [3]	binding [4]	Substance	binding [1]	binding [2]
		human IR-β-GFP (from UniProt P06213 763-1382) (receptor)	binds	binds
binds	binds	insulin receptor β (IR-β), endogenous mouse (from UniProt P15208 753-1372)		
no binding		phosphatase and tensin homolog (PTEN), endogenous mouse (from UniProt O08586 1-403) (enzyme)		
